Paper PMC12221590
These are yes or no findings as the source states them, for the method shown. In cells and extracts the contact can be indirect. Some entries that bind do so weakly or less than the wild type.

By UniProt entry, the sequences of proteins in these tests, tags left out.
UniProt Q5M9Q1: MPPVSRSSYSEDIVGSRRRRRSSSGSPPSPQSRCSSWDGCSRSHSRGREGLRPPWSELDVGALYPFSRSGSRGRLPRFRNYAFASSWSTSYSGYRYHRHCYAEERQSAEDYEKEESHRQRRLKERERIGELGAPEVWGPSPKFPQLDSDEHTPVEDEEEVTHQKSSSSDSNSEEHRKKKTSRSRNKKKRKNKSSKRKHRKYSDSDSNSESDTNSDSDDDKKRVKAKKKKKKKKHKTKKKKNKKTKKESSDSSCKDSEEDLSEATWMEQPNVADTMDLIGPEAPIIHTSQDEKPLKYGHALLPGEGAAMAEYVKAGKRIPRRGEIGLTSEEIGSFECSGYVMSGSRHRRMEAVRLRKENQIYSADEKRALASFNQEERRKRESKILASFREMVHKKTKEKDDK
UniProt P19474: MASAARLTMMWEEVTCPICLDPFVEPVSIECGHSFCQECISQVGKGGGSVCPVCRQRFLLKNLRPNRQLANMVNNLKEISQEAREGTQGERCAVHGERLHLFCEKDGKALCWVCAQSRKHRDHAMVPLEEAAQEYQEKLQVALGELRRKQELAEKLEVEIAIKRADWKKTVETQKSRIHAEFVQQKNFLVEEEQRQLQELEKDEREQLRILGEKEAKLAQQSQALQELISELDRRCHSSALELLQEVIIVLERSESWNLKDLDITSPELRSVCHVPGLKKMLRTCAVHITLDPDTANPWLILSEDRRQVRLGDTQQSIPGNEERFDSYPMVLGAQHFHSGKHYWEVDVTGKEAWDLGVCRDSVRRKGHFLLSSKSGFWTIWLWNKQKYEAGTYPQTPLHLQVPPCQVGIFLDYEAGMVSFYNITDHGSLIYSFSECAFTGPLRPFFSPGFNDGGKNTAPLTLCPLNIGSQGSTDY

Molecular target: GFP-tagged NF-kappa-B-activating protein-like (NKAPL) (human) (UniProt Q5M9Q1)
Experiment: co-IP; A549 lysates incubated with anti-GFP antibodies; immunoprecipitates examined by western blotting with antibodies against TRIM21 and GFP

binding: binds
Substance: tripartite motif-containing 21 (TRIM21) (from UniProt P19474 1-475)
